Assay results taken from paper PMC5493424.
These are yes or no findings as the source states them, for the method shown. Binding seen in cells or lysates may run through a third protein.

Chains of the proteins cited; added tags and fusions are not shown.
UniProt P01100: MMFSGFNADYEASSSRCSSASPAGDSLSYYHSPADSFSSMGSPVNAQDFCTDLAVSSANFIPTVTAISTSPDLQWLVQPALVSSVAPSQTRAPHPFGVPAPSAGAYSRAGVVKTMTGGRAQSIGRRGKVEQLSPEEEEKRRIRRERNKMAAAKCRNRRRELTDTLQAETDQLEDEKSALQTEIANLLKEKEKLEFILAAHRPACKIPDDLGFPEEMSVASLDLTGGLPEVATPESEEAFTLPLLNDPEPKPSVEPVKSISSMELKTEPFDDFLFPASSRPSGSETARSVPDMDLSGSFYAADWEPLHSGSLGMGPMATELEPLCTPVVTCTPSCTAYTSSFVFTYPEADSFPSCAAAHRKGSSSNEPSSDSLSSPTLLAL

Biological target: c-Fos (human (endogenous in MG63)) (UniProt P01100)
Test: co-IP; MG63 cell lysate incubated with anti-c-Fos antibody (Cell Signaling) and protein A agarose beads (Co-IP Kit, Thermo Scientific) with protease inhibitor cocktail; input, Co-IP and flow fractions blotted for Wnt2 and Fzd9

binding | Binder
no binding | Wnt2 (ligand, UniProt P09544 26-360) SWWYMRATGGSSRVMCDNVPGLVSSQRQLCHRHPDVMRAISQGVAEWTAECQHQFRQHRWNCNTLDRDHSLFGRVLLRSSRESAFVYAISSAGVVFAITRACSQGEVKSCSCDPKKMGSAKDSKGIFDWGGCSDNIDYGIKFARAFVDAKERKGKDARALMNLHNNRAGRKAVKRFLKQECKCHGVSGSCTLRTCWLAMADFRKTGDYLWRKYNGAIQVVMNQDGTGFTVANERFKKPTKNDLVYFENSPDYCIRDREAGSLGTAGRVCNLTSRGMDSCEVMCCGRGYDTSHVTRMTKCGCKFHWCCAVRCQDCLEALDVHTCKAPKNADWTTAT
no binding | Frizzled-9 (receptor, UniProt O00144 23-591) LEIGRFDPERGRGAAPCQAVEIPMCRGIGYNLTRMPNLLGHTSQGEAAAELAEFAPLVQYGCHSHLRFFLCSLYAPMCTDQVSTPIPACRPMCEQARLRCAPIMEQFNFGWPDSLDCARLPTRNDPHALCMEAPENATAGPAEPHKGLGMLPVAPRPARPPGDLGPGAGGSGTCENPEKFQYVEKSRSCAPRCGPGVEVFWSRRDKDFALVWMAVWSALCFFSTAFTVLTFLLEPHRFQYPERPIIFLSMCYNVYSLAFLIRAVAGAQSVACDQEAGALYVIQEGLENTGCTLVFLLLYYFGMASSLWWVVLTLTWFLAAGKKWGHEAIEAHGSYFHMAAWGLPALKTIVILTLRKVAGDELTGLCYVASTDAAALTGFVLVPLSGYLVLGSSFLLTGFVALFHIRKIMKTGGTNTEKLEKLMVKIGVFSILYTVPATCVIVCYVYERLNMDFWRLRATEQPCAAAAGPGGRRDCSLPGGSVPTVAVFMLKIFMSLVVGITSGVWVWSSKTFQTWQSLCYRKIAAGRARAKACRAPGSYGRGTHCHYKAPTVVLHMTKTDPSLENPTHL
